This note sets out measurements from PubChem BioAssay AID493014 (National Center for Advancing Translational Sciences (NCATS), 2011).

The nature of this assay: qHTS Assay to Find Inhibitors of Chronic Active B-Cell Receptor Signaling. Conditions: ABC-DLBCL IkBa-CBG/CBR reporter, luminescence ratio (green luciferase fused to IkBa over red control in TMD8 lymphoma cells), 4 h. The procedure, abridged:
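TMD8 human ABC-DLBCL cells with doxycycline-inducible IκBα–green luciferase fusion and unfused red luciferase, in 0.5% FBS medium; compounds up to 46 uM, 4 h at 37C. Green/red luminescence ratio, filter-overlap corrected, fitted to concentration-response curves.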
For orientation: In qHTS, concentration-response curves come from the screen itself.

The mark [1] stands for this setting: measured here: CBR red luminescence, cell number.
Setting [2] is: measured here: IkBa-CBG green luminescence.

This is one part of the list. The main result of the screen is listed elsewhere. These columns were measured beside it and carry no call. Compounds called inactive in the main read-out are mostly missing here. Potencies come from curve fits of mixed quality, noted in brackets.

On to `CCOc1cc(/C=N/Nc2nnc(C)n2N)ccc1O`, for which, under setting [1], the AC50 (usually the concentration giving half of the maximal activity seen) was 35.5 µM [falling, single point].

On to `Cc1nc(Nc2nc3ccccc3o2)nc2c1CCC2`, for which, under setting [1], the AC50 is 0.112 µM [rising, full curve, poor fit].

As for `C/C(CC(=O)NC12CC3CC(CC(C3)C1)C2)=N\NC(=O)c1ccc(F)cc1`, the AC50 under setting [1] is 8.91 µM [falling, partial curve, poor fit].

For the compound `CN1CCN(c2oc(COc3ccc(-c4ccccc4)cc3)nc2C#N)CC1`, the AC50 under setting [1] is 6.51 µM [rising, single point].

Turning to `CCC(C)Nc1nc(-c2cccc(OC)c2O)nc2ccccc12` (stereo not given), under setting [1], the AC50 was 17.8 µM [falling, partial curve, poor fit].

On to `CCOc1ccc(C(=O)NC(=S)Nc2ccc(N3CCOCC3)c(Cl)c2)cc1[N+](=O)[O-]`, for which, under setting [1], the AC50 was 7.31 µM [rising, partial curve, poor fit].

Take `C=C1C(=O)C=C[C@]2(C)C[C@@H]3OC(=O)[C@](C)(O)[C@H]3C[C@@H]12`: the AC50 is 35.5 µM [falling, single point] under setting [1] and 3.55 µM [falling, partial curve, poor fit] under setting [2].

For `O=Cc1cccc(OC(=O)c2ccc(Cl)cc2Cl)c1`, the AC50 under setting [1] is 9.2 µM [rising, partial curve].

As for `Cc1ccc(OCC(=O)Nc2ccccc2F)cc1C`, the AC50 under setting [1] is 7.08 µM [falling, partial curve].

As to `CCOc1ccc(/C=N/Nc2ccccc2)cc1`, the AC50 under setting [1] is 14.1 µM [falling, single point].

As for `Cc1cc(C)c2c(N)c(C(=O)Nc3cccc(C)c3C)sc2n1`, the AC50 under setting [1] was 11.2 µM [falling, partial curve].

For the compound `Cc1ccc(NC(=O)c2cc(S(=O)(=O)NC3CCCCCC3)ccc2F)cc1F`, the AC50 under setting [1] was 14.1 µM [falling, partial curve, poor fit].

On to `CC[n+]1c(/C=C/C=C/N(C(C)=O)c2ccccc2)sc2cc(OC)ccc21`, for which the AC50 under setting [1] was 13 µM [rising, partial curve, poor fit].

As to `Fc1ccccc1Cn1cc(C(=S)N2CCOCC2)c2ccccc21`, under setting [1], the AC50 was 10 µM [falling, partial curve].

As for `CCc1ccc(C(=O)COC(=O)c2cc([N+](=O)[O-])ccc2N2CCOCC2)cc1`, the AC50 under setting [1] is 0.0082 µM [rising, full curve, poor fit].

For `Cc1cc2oc(C(=O)NC3CCS(=O)(=O)C3)c(C)c2cc1C` (stereo not given), under setting [1], the AC50 was 2.91 µM [rising, partial curve, poor fit].

For the compound `Cc1cccc(OCc2nc(C#N)c(NCc3ccc4c(c3)OCO4)o2)c1`, under setting [1], the AC50 was 0.164 µM [falling, full curve, poor fit].

Turning to `COc1ccc(Br)cc1/C=C(\C(=O)O)c1ccc(S(=O)(=O)N2CCCC2)s1`, under setting [1], the AC50 is 6.51 µM [falling, partial curve, poor fit].

`COc1ccc(NC(=S)NC(=O)/C=C/c2cccs2)cc1`: the AC50 under setting [1] was 7.94 µM [rising, partial curve].

On to `COc1ccc(C(=O)NCCCc2nc3ccccc3n2Cc2ccccc2C)cc1OC`, for which, under setting [1], the half-maximal activity concentration (AC50) is 1.84 µM [rising, partial curve, poor fit].

As to `O=C(NCCc1ccc(Cl)cc1)c1n[nH]c2ccccc12`, under setting [1], the AC50 was 3.98 µM [falling, partial curve].

Turning to `CCN(CC)c1ccc(/C=C2\SC(=O)N(C(C)C)C2=O)o1`, under setting [1], the AC50 was 14.1 µM [falling, single point].

For the compound `CC(C)C[C@@H](C(=O)NC1CCN(Cc2ccccc2)CC1)N1C(=O)N2CCc3c([nH]c4ccccc34)[C@@]2(C)C1=O`, the AC50 under setting [1] was 8.91 µM [falling, partial curve].

Take `CC(NC(=O)C12CC3CC(CC(C3)C1)C2)C(=O)N/N=C/C1=C(N2CCOCC2)C(=C\c2cccc([N+](=O)[O-])c2)/CC1` (stereo not given): the AC50 under setting [1] was 1.46 µM [rising, full curve, poor fit].

Turning to `O=C(N/N=C/c1cccc([N+](=O)[O-])c1)c1ccc2c(c1)OCCO2`, the AC50 under setting [1] is 1.58 µM [falling, full curve, poor fit].

Turning to `O=C(COC(=O)CCc1nc2ccccc2c(=O)[nH]1)Nc1c(Cl)cccc1C(F)(F)F`, the AC50 under setting [1] was 4.11 µM [rising, single point].

Regarding `CC(C)c1csc(CN2CCC(N3CCC(C(=O)N4CCOCC4)CC3)CC2)n1`, under setting [1], the AC50 is 11.2 µM [rising, partial curve, poor fit].

`COC(=O)c1cc(Cl)cc(Cl)c1OS(=O)(=O)N(C)C`: the AC50 under setting [1] is 14.1 µM [rising, partial curve, poor fit].

In the case of `Cc1ccc(F)cc1NC(=O)N1CCCN(C(=O)OC(C)(C)C)CC1`, the AC50 under setting [1] is 12.6 µM [rising, partial curve].

As for `COc1ccc(OC)c(C(=O)CSc2nc3cccnc3n2C)c1`, the concentration at half-maximal activity (AC50) under setting [1] was 0.259 µM [falling, full curve, poor fit].

With `COc1ccc(C(=O)CSc2[nH]c(=O)cc(C(F)(F)F)c2C#N)cc1`, under setting [1], the AC50 is 35.5 µM [falling, single point].

With `Cc1nc(NC(=O)CCl)sc1C(=O)N(C)C`, the AC50 under setting [1] was 35.5 µM [falling, single point].

Consider `COc1cccc(C(=O)Nc2nnc(-c3ccc(F)cc3)o2)c1`, for which, under setting [1], the AC50 was 15.8 µM [falling, partial curve].

Consider `O=C1/C(=C/c2coc3ccc(O)cc3c2=O)SC(=S)N1c1ccccc1`, for which the AC50 under setting [1] was 35.5 µM [falling, single point].

In the case of `O=C(NCCc1ccc(Cl)cc1)c1cc2ccccn2n1`, the AC50 under setting [1] is 12.6 µM [falling, partial curve, poor fit].

On to `N#Cc1ncn(-c2ccc(Oc3ccccc3)cc2)c1N`, for which the AC50 under setting [1] is 35.5 µM [rising, single point].

For the compound `CCOC(=O)C1(Cc2ccccc2)CCN(Cc2cccc(OC)c2O)CC1`, the AC50 under setting [1] was 10 µM [falling, partial curve].

As to `Cc1c(CCC(=O)O)c(=O)oc2c(C)c(OCc3ccccc3Cl)ccc12`, the AC50 under setting [1] is 10 µM [falling, partial curve, poor fit].

On to `Cc1cc([N+](=O)[O-])ccc1-c1ccc(C2Nc3ccccc3C(=O)N2O)o1` (stereo not given), for which the AC50 under setting [1] was 14.1 µM [falling, partial curve, poor fit].

Regarding `CCOC(=O)[C@@H]1[C@H]2COc3cc(OC)ccc3[C@@H]2N2C(=O)N(c3cccc(F)c3)C(=O)[C@]12C`, the AC50 runs as follows: under setting [1], 25.1 µM [falling, single point]; under setting [2], 22.4 µM [rising, partial curve, poor fit].

As to `COCCSc1ccccc1C(=O)Nc1cc(C)on1`, the AC50 under setting [1] is 2.31 µM [falling, partial curve, poor fit].

For the compound `COc1ccc(CCNC(=O)c2cc(-c3cc(C)cc(C)c3O)n[nH]2)cc1OC`, the AC50 under setting [1] was 22.4 µM [falling, single point].

In the case of `CCN(CC(=O)NCc1cccs1)C(=O)/C=C/c1cc(OC)c(OC)c(OC)c1`, under setting [1], the AC50 was 11.6 µM [rising, partial curve, poor fit].

In the case of `Cc1ccc2cc3cc(C(=O)N4CC(C)CC(C)C4)oc3nc2c1` (stereo not given), under setting [1], the half-maximal activity concentration (AC50) was 18.4 µM [rising, partial curve, poor fit].

As for `Cc1c(C)c2ccc(OCC(=O)N3CCC(C(=O)O)CC3)c(C)c2oc1=O`, the half-maximal activity concentration (AC50) under setting [1] is 2.51 µM [falling, full curve].

Consider `O=C(CN1C(=O)S/C(=C\c2ccccc2Cl)C1=O)NC1C=CS(=O)(=O)C1` (stereo not given), for which the AC50 under setting [1] is 3.55 µM [falling, partial curve, poor fit].

Turning to `Cc1ccc2c(c1)C(N1CCCC1=O)CC(c1ccco1)N2` (stereo not given), the AC50 under setting [1] was 4.47 µM [rising, full curve, poor fit].

`O=C(NCc1ccncc1)C(=O)N/N=C/c1cccnc1`: the concentration at half-maximal activity (AC50) under setting [1] is 22.4 µM [falling, single point].

Turning to `COc1ccccc1N1CCN(CCCNC(=O)Nc2ccccc2C)CC1`, the AC50 under setting [1] was 11.2 µM [rising, single point].

Regarding `COc1ccc(C)cc1NC(=O)C1COc2ccccc2O1` (stereo not given), the AC50 under setting [1] is 5.62 µM [rising, single point].

Regarding `CC1CCCCC1NC(=O)C1CCN(S(=O)(=O)c2ccc(-n3cnnn3)cc2)CC1` (stereo not given), the AC50 under setting [1] is 6.51 µM [rising, single point].

Take `Nc1c(Cl)cc(Cl)cc1C(=O)OCC(=O)NC1CC1`: the half-maximal activity concentration (AC50) under setting [1] is 1.84 µM [falling, full curve, poor fit].

Consider `C=C(C)C1CC=C(C)/C(=N/NC(=O)c2cccs2)C1` (stereo not given), for which the AC50 under setting [1] was 4.11 µM [rising, full curve, poor fit].

`CCN(CC)C(=O)Cn1nc(-c2ccc(Cl)cc2)c2ccccc2c1=O`: the AC50 under setting [1] was 0.224 µM [falling, full curve].

Consider `Cc1oc(-c2ccc(Cl)cc2)cc1C(=O)O`, for which the AC50 under setting [1] was 3.98 µM [falling, partial curve].

On to `COC(=O)CCc1c(C)nc(N)[nH]c1=O`, for which, under setting [1], the AC50 was 5.8 µM [rising, full curve].

With `Clc1ccc(-c2csc(-c3ccno3)n2)cc1`, the concentration at half-maximal activity (AC50) under setting [1] is 22.4 µM [rising, partial curve, poor fit].

As to `CCOc1ccccc1OCC(=O)OC(C)C(=O)Nc1ncc(Cl)cc1Cl` (stereo not given), the AC50 under setting [1] was 20.6 µM [rising, single point].

Take `CCn1c(NN)nc2sc3c(c2c1=O)CCC3`: under setting [1], the AC50 was 0.231 µM [falling, partial curve, poor fit].

As for `O=C(CN(Cc1ccccc1)C(=O)c1cc2c(s1)CCC2)NCc1cccs1`, under setting [1], the AC50 was 3.55 µM [falling, partial curve].

On to `Cc1cc(=O)oc2cc(OC(C)C(=O)NCC3CCCO3)ccc12` (stereo not given), for which the AC50 under setting [1] was 6.31 µM [rising, single point].

`Cc1cc(/C=C(\C#N)C(=O)NCc2ccco2)c(C)n1-c1cccnc1`: the AC50 under setting [1] is 22.4 µM [falling, single point].

`CC/C(=N/NC(=O)c1ccc(Br)cc1)c1ccc(OCCN2CCOCC2)cc1`: the AC50 under setting [1] was 5.8 µM [falling, partial curve, poor fit].
